Values from PubChem BioAssay AID1259424 (University of Nebraska Medical Center, 2018)

Aim: 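Seek colon cancer survival genes behaving like KSR1, using a six-gene signature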 (primary screen)
Cells: human HCT116 colon cancer cells
Reagents: siRNA pool against human genes, 50 nM
Detection: 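Six signature mRNAs by branched-DNA multiplex assay, scaled to two housekeeping genes and non-targeting median, log2; matched to mean KSR1 knockdown profile by Pearson correlation and euclidean distance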
Scale: mean correlation with KSR1 profile and KSR1 correlation: higher = expression change more like KSR1 knockdown; mean distance from KSR1 profile: higher = expression change less like KSR1 knockdown
Shown is an unselected part of about 14,000 reagents tested. 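Higher correlation or smaller distance means closer resemblance to KSR1 loss; control wells, including KSR1 knockdowns, recur on many plates.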 Further read-outs or replicates are left out here. The record does not give: the time to read-out.

The first 3 records, to show the layout:
Gene | mean correlation with KSR1 profile | mean distance from KSR1 profile | KSR1 correlation, replicate 1
PLAA (phospholipase A2 activating protein) | -0.0486 | 4.01 | -0.0416
L3MBTL2 (L3MBTL histone methyl-lysine binding protein 2) | 0.471 | 3.21 | 0.367
TBC1D14 (TBC1 domain family member 14) | -0.244 | 3.94 | -0.371

The listing, from the first entry:
Gene | mean correlation with KSR1 profile | mean distance from KSR1 profile | KSR1 correlation, replicate 1
PLAA (phospholipase A2 activating protein) | -0.0486 | 4.01 | -0.0416
L3MBTL2 (L3MBTL histone methyl-lysine binding protein 2) | 0.471 | 3.21 | 0.367
TBC1D14 (TBC1 domain family member 14) | -0.244 | 3.94 | -0.371
CDK6 (cyclin dependent kinase 6) | -0.185 | 3.02 | -0.113
FBXL19 (F-box and leucine rich repeat protein 19) | -0.51 | 3.71 | -0.535
BACE1 (beta-secretase 1) | -0.504 | 3.79 | -0.216
CCDC198 (coiled-coil domain containing 198) | 0.713 | 2.77 | 0.613
NAA20 (N-alpha-acetyltransferase 20, NatB catalytic subunit) | -0.222 | 1.86 | -0.408
AHDC1 (AT-hook DNA binding motif containing 1) | 0.158 | 1.47 | -0.34
CAMK2N1 (calcium/calmodulin dependent protein kinase II inhibitor 1) | 0.381 | 2.5 | 0.371
AP4S1 (adaptor related protein complex 4 subunit sigma 1) | -0.583 | 2.84 | -0.539
HSPA1A (heat shock protein family A (Hsp70) member 1A) | -0.298 | 2.12 | -0.176
ZWILCH (zwilch kinetochore protein) | -0.564 | 2.8 | -0.582
SERPINB1 (serpin family B member 1) | -0.399 | 3.06 | -0.397
DAPK3 (death associated protein kinase 3) | -0.13 | 2.38 | -0.0608
SRF (serum response factor) | 0.386 | 2.57 | 0.619
TFEC (transcription factor EC) | 0.128 | 1.58 | 0.121
ITGA10 (integrin subunit alpha 10) | 0.722 | 1.19 | 0.776
C19orf73 (chromosome 19 open reading frame 73) | 0.188 | 3.94 | 0.12
RPL23 (ribosomal protein L23) | -0.449 | 4.27 | -0.593
C8orf17 (chromosome 8 putative open reading frame 17) | -0.718 | 4.59 | -0.734
RNF181 (ring finger protein 181) | -0.737 | 3.3 | -0.525
RECQL5 (RecQ like helicase 5) | 0.317 | 1.7 | 0.16
UBP1 (upstream binding protein 1) | -0.317 | 3.18 | -0.101
HEG1 (heart development protein with EGF like domains 1) | -0.105 | 3.28 | 0.0458
DCAF11 (DDB1 and CUL4 associated factor 11) | -0.106 | 2.93 | -0.451
GSTM2 (glutathione S-transferase mu 2) | 0.0556 | 2.46 | -0.0908
LNPEP (leucyl and cystinyl aminopeptidase) | 0.167 | 1.97 | 0.293
RPA1 (replication protein A1) | -0.709 | 2.44 | -0.427
ZNF630 (zinc finger protein 630) | -0.472 | 5.15 | 0.401
INTS2 (integrator complex subunit 2) | -0.344 | 4.07 | -0.375
TNKS2 (tankyrase 2) | 0.581 | 1.83 | -0.0866
OR1A2 (olfactory receptor family 1 subfamily A member 2) | 0.346 | 2.05 | 0.651
YAF2 (YY1 associated factor 2) | 0.351 | 1.55 | -0.0431
